Experimental data reported in article PMC10163288.
The other results are listed elsewhere or left out.

B1: il10ra_site1_normal_mot_HHH_b2_00800_af2_000000047_0001_1_20_H_._HHH_b1_04999_0001_0000200017_0000001_0 (protein)
chain: SSSSQEIYEFAREAIELVIELLREGNPEEAEKVVEELEELAKERNNHAVEATARILKRAINSSSS
B2: il10ra_site1_sap_28_mot_HHH_b2_03076_000000205_0001_1_19_H_._HHH_b1_03492_af2_0001_0000200019_0000001_0_0001 (protein)
chain: SSSSSDEEYEEEVEELLEEAKRIPDPEEAARVLAEAVHAAAELGNPELLRLVWRVVHEISSSSSS
B3: il10ra_site1_sap_23_mot_HHH_b1_03260_000000175_0001_42_57_H_._HHH_b1_06107_0001_0000700025_0000001_0_0001_af2pred_0001 (protein)
chain: SSSSSDEEEERVEELLEEAKHIPNAEERFRVLKEALELAAELNNPELLRLVRKVAREILTSSSSS
B4: il10ra_site1_normal_mot_HHH_b1_05357_000000034_0001_23_39_H_._HHH_b2_08253_0001_0000500003_0000001_0_af2pred_0001 (protein)
chain: SSSSSSSEEEVEELLEEAKRVDDPRERAYLLTRAYALANRLNDPELRREVEEVAIKLVSSSSSSS
B5: il10ra_site1_sap_8_mot_HHH_b1_01307_000000115_0001_1_18_H_._HHH_b2_08385_0001_0000300007_0000001_0_0001 (protein)
chain: SSSSSDREEVLRLSLQAFRLLLRGNPEEARKVLEEAEELAEELGDERMLKVIEDLLRILNSSSSS
B6: il10ra_site1_normal_mot_HHH_b1_07641_af2_000000285_0001_1_21_H_._HHH_b2_02373_0001_0000100004_0000002_0 (protein)
chain: SSSSDTEEAMRLAEEASEALQKGDTEEARELLEQAREIAEEKGNEVLLWSIEYLLRQVEEESSSS
B7: il10ra_site1_normal_mot_HHH_b1_02997_000000220_0001_39_52_H_._HHH_b1_01256_0001_0000100003_0000001_0_af2pred_0001 (protein)
chain: SSSSSDHEVVREIQELLREALKIEDPEEAREVVERAIELAEEANNPLLELIAKYLLKDLNSSSSS
B8: il10ra_site1_normal_mot_HHH_b1_07380_000000129_0001_1_20_H_._HHH_b1_06779_0001_0000200024_0000001_0 (protein)
chain: SSSSTEDHEIYKLSREVAELIAEGDEEEAEELLEEAIKYAREVGNRNMLFNLEHLEKILESSSSS
B9: il10ra_site1_sap_25_mot_HHH_b2_05323_000000159_0001_1_18_H_._HHH_b1_07802_0001_0000300036_0000001_0_0001 (protein)
chain: SSSSSEDEERREELEREAKELEEEGDPEEAARVLFEAARLAAELHDRELAERLVEEFIRLSSSSS
B10: il10ra_site1_sap_19_mot_HHH_b1_05860_000000142_0001_1_19_H_._HHH_b1_07641_0002_0000400026_0000002_0_0001 (protein)
chain: SSSSDEEVEELFEQAEEALKEGDSEKALRLVWRAVHLAAELDDRELYEEIYELLHKIANASSSSS
B11: il10ra_site1_sap_25_mot_HHH_b1_04100_af2_000000180_0001_1_19_H_._HHH_b1_04026_0001_0000100001_0000003_0_0001 (protein)
chain: SSSSNLERHIEHMLRAIEHARKAGDEEYVRLALKFVKASAEANNDEEAERLVEELEERLRSSSSS
B12: il10ra_site1_sap_24_mot_HHH_b2_02386_000000054_0001_1_20_H_._HHH_b2_03865_af2_0001_0000300025_0000002_0_0001 (protein)
chain: SSSSSEEEEELERLLERIEELLKNGNPEEALEVIQEALHLAFQLSDEETLRELWELAKEVASSSS
B13: il10ra_site1_normal_mot_HHH_b2_06795_000000133_0001_42_56_H_._HHH_b2_02785_0001_0000100001_0000001_0 (protein)
chain: SSSSDEERRRISEIFQRASKLIREGDEEEVRKLIEELERLAEELNDERAKQAVRFLKLLLSSSSS
B14: il10ra_site1_sap_14_mot_47763b419dcba15278d0659274068abf_0001_af2_000000068_0001_35_48_H_._HHH_b1_06234_0001_0000300013_0000001_0_0001 (protein)
chain: SSSSDEIQRVAELTLEAFRLALRGNPEEAEKVLEEAEELAEKSNDPRAERMIRDLLKAIRASSSS
B15: il10ra_site1_normal_mot_HHH_b1_01827_000000263_0001_1_19_H_._HHH_b2_04613_af2_0001_0000300016_0000001_0 (protein)
chain: SSSSTTELFERVRELIERASELFREGNPEEARELLEEARELAEEANNELLRFSVEHALRALSSSS
B16: il10ra_site1_sap_25_mot_HHH_b1_01779_000000096_0001_43_57_H_._HHH_b2_01312_af2_0001_0000400022_0000001_0_0001 (protein)
chain: SSSSDELLQRALELFQRAFRLALRGNPEEARELAEEAEELAEEANDERLLKMIRDLLESLSSSSS
B17: il10ra_site1_normal_mot_3af0db62db2b275566dae2e03bf881fa_0001_000000003_0001_37_50_H_._HHH_b1_07148_af2_0001_0000600029_0000001_0_af2pred_0001 (protein)
chain: SSSSSSQEELVLEAILYAARFTPDPEAARALLEFAVRLAREVGNEELLEEAEELLEELNSSSSSS
B18: il10ra_site1_normal_mot_HHH_b2_07144_000000289_0001_1_18_H_._HHH_b1_03935_0001_0000100008_0000001_1 (protein)
chain: SSSSSEEAEELYELSREVAHLHREGDEEEAKRLLEEAIELAEELGNFNILFALELLLRQLSSSSS
B19: il10ra_site1_sap_19_mot_HHH_b1_00329_000000081_0001_1_16_H_._HHH_b1_03754_0001_0000500040_0000001_1_0001 (protein)
chain: SSSSSEEVEEEVERLLEEAEKVDAQEMFKLLEKAIELATKNNDPELVRKVMEALHKLLHNSSSSS
B20: il10ra_site1_normal_mot_HHH_b1_06994_000000193_0001_40_55_H_._HHH_b1_04886_0001_0000200028_0000001_0 (protein)
chain: SSSSDQEEELVRAALRLVEQVRENGDPRAARFLLWSARFLAEEINNPELLREVEELEEELNSSSS
B21: il10ra_site1_sap_25_mot_HHH_b1_02999_af2_000000239_0001_42_56_H_._HEEHE_1486_0001_0000400041_0000002_0_0001 (protein)
chain: SSSSSEEEIEKLLEELERLIEEGDEEEALHLALRILRLIYRLGNWELLRELWRLLEELRESSSSS
B22: il10ra_site1_sap_17_mot_b26a303360aa2756ef5b79665ce52f45_0001_000000179_0001_1_11_H_._HHH_b2_06946_0001_0000400005_0000001_0_0001 (protein)
chain: SSSSTAAEELVESALESARIARERNNEEYLRLALRYARNTAENHNNEELRELVEKVEEELHSSSS
B23: il10ra_site1_normal_mot_HHH_b1_01821_000000158_0001_23_39_H_._HHH_b1_08068_af2_0001_0000200003_0000001_0 (protein)
chain: SSSSSDEEEEVRELLEEAEQIEDHEERLEVLLKALRLAIELNNPELLQEVWEVFRRLAGSSSSSS
B24: il10ra_site1_normal_mot_HHH_b2_05323_000000159_0001_1_18_H_._HHH_b2_08300_0001_0000100006_0000001_0 (protein)
chain: SSSSSSDEVLELSLEAFRLALRGNPEEARKVLEEALELAEEDGDERLLRVLRHLLDVLSSSSSSS
B25: il10ra_site1_normal_mot_HHH_b1_01880_000000285_0001_23_39_H_._ems_3hC_921_af2_0001_0000800051_0000001_0_af2pred_0001 (protein)
chain: SSPEEAKKLLEEAEKLAEEQNDEHLRIAVRFWKDLLEEAAELNDEHAVEAVRWAAEALLEALKTS
B26: il10ra_site1_sap_23_mot_6792f2186577ebd01aa11eb855ed7b57_0001_af2_000000149_0001_1_16_H_._HHH_b1_03116_af2_0001_0000300011_0000002_0_0001 (protein)
chain: SSSSSDEEEEEVEELLEEAKRIEDPRERAEVLAEALRVASEGKNPELLRLVDRVAIELYWSSSSS
B27: il10ra_site1_normal_mot_HHH_b1_05704_af2_000000048_0001_1_18_H_._HHH_b1_02442_0001_0000300018_0000002_0 (protein)
chain: SSSSSSLQEAYEAAERAAELLQEGNREEAEELLREVLERLEELGNELAEFVIRHLVRALASSSSS
B28: il10ra_site1_sap_24_mot_HHH_b1_03559_000000151_0001_22_39_H_._HHH_b1_04589_0001_0000100002_0000001_0_0001 (protein)
chain: SSSSDWFEELAELLRELMRAKTEEEFEELSRLVEEVAEKANNELARWQVRFVVELVERELSSSSS
B29: il10ra_site1_normal_mot_HHH_b2_08186_000000021_0001_43_56_H_._HHH_b1_08296_af2_0001_0000300006_0000001_0 (protein)
chain: SSSSSEEEREIEELREELKELAEKGDRERFNRVYQRILQLVYLLGDAELLQELWELLKKLESSSS
B30: il10ra_site1_sap_24_mot_HHH_b1_08440_000000140_0001_1_20_H_._HHH_b1_07647_0001_0000200002_0000001_0_0001 (protein)
chain: SSSSSTTEELYELLREAIELLSEGNPEEAEKIAEELLREAEEAGNWAFVHVARLILRLAGSSSSS
B31: il10ra_site1_normal_mot_HHH_b1_03031_af2_000000117_0001_17_33_H_._HHH_b2_01802_af2_0001_0000100002_0000001_0 (protein)
chain: SSSSDEEEEEAKELLEEAKQIEDPEEARKLVQRALWLAARAKDDELSVEAIRLLAELLQGSSSSS
B32: il10ra_site1_normal_mot_HHH_b2_07521_000000141_0001_20_37_H_._HHH_b1_05319_0001_0000200015_0000001_0_af2pred_0001 (protein)
chain: SSSSSRDEEAVRLSLRIAKFLAEQGDPEAARFILKAAKELAKKFNNEELKELIEEVEERISSSSS
B33: il10ra_site1_sap_25_mot_HHH_b1_03574_000000194_0001_1_18_H_._HHH_b1_02077_0001_0000200019_0000001_0_0001 (protein)
chain: SSSSSEEHRELFELSRRAAELLSEGNPEEAEEVLEEARRLAEEANNQLMLINIRYLLKDLNSSSS
B34: il10ra_site1_normal_mot_HHH_b2_07144_000000289_0001_1_18_H_._HHH_b2_07029_0001_0000100001_0000001_0 (protein)
chain: SSSSTEELEEVYRLSREAAELLREGNPEEAEEVAREALRLAEENNSPAFVFALRHLIRDISSSSS
B35: il10ra_site1_sap_13_mot_HHH_b2_04993_000000082_0001_43_55_H_._0a28df53656836c8faf163f96bad2529_0001_1_af2_0001_0000100004_0000002_0_0001_af2pred_0001 (protein)
chain: SSSSDEEEERLEELLEEVEELLRQGDPEEAARLLFEVAKLAAELNDDEILKLVQELVHLLFSSSS
B36: il10ra_site1_normal_mot_HHH_b1_05056_000000217_0001_1_20_H_._HHH_b2_04661_af2_0001_0000500034_0000002_0 (protein)
chain: SSSSDEEELEELLEKLEELAEKGDRERFLELVLRLSELIFRLGDKEALQRLWELVREFLRRSSSS
B37: il10ra_site1_normal_mot_HHH_b2_00984_000000042_0001_1_20_H_._HHH_b2_03105_af2_0001_0000300022_0000001_0 (protein)
chain: SSSSDEEEELERLLEKLEELLEEGDPHKISRLAQRVIRLATRLNDPEALKKAWEIIKKADSSSSS

Molecular target: il10ra, Q13651
Assay: yeast display titration

Row | Binder | apparent Kd
1 | B1 | inactive: no binding seen
2 | B2 | inactive: no binding seen
3 | B3 | inactive: no binding seen
4 | B4 | inactive: no binding seen
5 | B5 | inactive: no binding seen
6 | B6 | inactive: no binding seen
7 | B7 | inactive: no binding seen
8 | B8 | inactive: no binding seen
9 | B9 | inactive: no binding seen
10 | B10 | inactive: no binding seen
11 | B11 | inactive: no binding seen
12 | B12 | inactive: no binding seen
13 | B13 | inactive: no binding seen
14 | B14 | inactive: no binding seen
15 | B15 | inactive: no binding seen
16 | B16 | inactive: no binding seen
17 | B17 | inactive: no binding seen
18 | B18 | inactive: no binding seen
19 | B19 | inactive: no binding seen

As entered above:
Entry of B18 under apparent Kd: inactive: no binding seen
Entry of B3 under apparent Kd: inactive: no binding seen

Remaining list, next part

Row | Binder | apparent Kd
20 | B20 | inactive: no binding seen
21 | B21 | inactive: no binding seen
22 | B22 | inactive: no binding seen
23 | B23 | inactive: no binding seen
24 | B24 | inactive: no binding seen
25 | B25 | inactive: no binding seen
26 | B26 | inactive: no binding seen
27 | B27 | inactive: no binding seen
28 | B28 | inactive: no binding seen
29 | B29 | inactive: no binding seen
30 | B30 | inactive: no binding seen
31 | B31 | inactive: no binding seen
32 | B32 | inactive: no binding seen
33 | B33 | inactive: no binding seen
34 | B34 | inactive: no binding seen
35 | B35 | inactive: no binding seen
36 | B36 | inactive: no binding seen
37 | B37 | inactive: no binding seen
